Assay results reported in the supplement of paper PMC5393889.
The list shows a part of the results.

These compounds were tested on Caenorhabditis elegans N2 (assay: aldicarb interaction hit call (worm growth perturbed in combination with 10 uM aldicarb in both replicates, no effect as single agent) (binary (1 = interacts)); higher = interacts with aldicarb (growth perturbed)). Settings: first compound 1.5 µM; aldicarb concentration 10 µM; 6 days; 20 °C.
Procedure: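 C. elegans liquid growth assay in 96-well plates: about 40 synchronized L1 worms in NGM with HB101 E. coli, 6 days at 20 C, 0.6% DMSO. Each wactive compound was tested at 1.5 uM plus 10 uM aldicarb, and alone in DMSO controls. Viable worms were scored under a dissection microscope in two replicates. A hit is a compound that perturbed growth with aldicarb in both replicates but had no obvious effect as a single agent. Only compounds that overgrew as single agents are kept.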

Row | Compound | aldicarb interaction hit call
1 | Cc1cccc(-c2ccc(NC(=O)C3CCN(CC4CCOC4)CC3)cc2)c1 (stereo not given) [wact-240] + CNC(=O)O/N=C/C(C)(C)SC [aldicarb] | inactive: 0
2 | Cc1ccc(-c2cnc3ccccc3n2)cc1 [wact-181] + CNC(=O)O/N=C/C(C)(C)SC [aldicarb] | inactive: 0
3 | CC(C)c1ccc(-c2nc3cc(N)ccc3o2)cc1 [wact-130] + CNC(=O)O/N=C/C(C)(C)SC [aldicarb] | inactive: 0
4 | O=[N+]([O-])c1ccc(N2CCN(CC3CCCCC3)CC2)cc1 [wact-45] + CNC(=O)O/N=C/C(C)(C)SC [aldicarb] | inactive: 0
5 | N/C(=N\OC(=O)c1cccs1)c1ccccc1 [wact-403] + CNC(=O)O/N=C/C(C)(C)SC [aldicarb] | inactive: 0
6 | CNCCCOc1ccc(-c2ccccc2)cc1.Cl [wact-94] + CNC(=O)O/N=C/C(C)(C)SC [aldicarb] | inactive: 0
7 | CCOc1ccc(C(=O)/C=C/c2ccccc2F)cc1 [wact-17] + CNC(=O)O/N=C/C(C)(C)SC [aldicarb] | inactive: 0
8 | Cc1ccc2[nH]c3c(c2c1)CCCC3/N=C/c1ccc(F)cc1 (stereo not given) [wact-42] + CNC(=O)O/N=C/C(C)(C)SC [aldicarb] | inactive: 0
9 | N/C(=N\OC(=O)c1ccc(Cl)cc1)c1ccc(F)cc1F [migrazole-A] + CNC(=O)O/N=C/C(C)(C)SC [aldicarb] | inactive: 0
10 | COc1ccc2oc(-c3ccc(OC)c(N)c3)nc2c1 [wact-553] + CNC(=O)O/N=C/C(C)(C)SC [aldicarb] | inactive: 0
11 | Cc1ccc2nc(-c3ccc(/N=C/c4ccc(O)cc4)cc3)sc2c1 [wact-374] + CNC(=O)O/N=C/C(C)(C)SC [aldicarb] | inactive: 0
12 | CC1(C)Cc2c(c(N3CCOCC3)nc3sc4c(=O)n(-c5ccccc5)cnc4c23)CO1 [wact-517] + CNC(=O)O/N=C/C(C)(C)SC [aldicarb] | inactive: 0
13 | O=C(NCc1ccc(Cl)cc1)C(Cl)(Cl)Cl [wact-485] + CNC(=O)O/N=C/C(C)(C)SC [aldicarb] | inactive: 0
14 | Cc1ccn2cc(-c3ccc(F)cc3)nc2c1 [wact-436] + CNC(=O)O/N=C/C(C)(C)SC [aldicarb] | inactive: 0
15 | C=CCNCCOc1ccc(-c2ccccc2)cc1.Cl [wact-147] + CNC(=O)O/N=C/C(C)(C)SC [aldicarb] | inactive: 0
16 | N/C(=N\OC(=O)c1ccccc1Br)c1ccncc1 [wact-453] + CNC(=O)O/N=C/C(C)(C)SC [aldicarb] | inactive: 0
17 | O=C(NCc1ccc(Cl)cc1Cl)c1cccs1 [wact-520] + CNC(=O)O/N=C/C(C)(C)SC [aldicarb] | inactive: 0
18 | Clc1cc(Br)ccc1OCCNC1CCCC1.O=C(O)C(=O)O [wact-95] + CNC(=O)O/N=C/C(C)(C)SC [aldicarb] | inactive: 0
19 | CSc1ccccc1C(=O)NCCSc1ccc(C)cc1 [wact-548] + CNC(=O)O/N=C/C(C)(C)SC [aldicarb] | inactive: 0
20 | CC(=O)N1CCN(c2cc(N3CCc4ccccc4C3)c(F)cc2[N+](=O)[O-])CC1 [wact-122] + CNC(=O)O/N=C/C(C)(C)SC [aldicarb] | inactive: 0

2 records picked at random from those above, as already listed:
Row | Compound | aldicarb interaction hit call
9 | N/C(=N\OC(=O)c1ccc(Cl)cc1)c1ccc(F)cc1F [migrazole-A] + CNC(=O)O/N=C/C(C)(C)SC [aldicarb] | inactive: 0
1 | Cc1cccc(-c2ccc(NC(=O)C3CCN(CC4CCOC4)CC3)cc2)c1 (stereo not given) [wact-240] + CNC(=O)O/N=C/C(C)(C)SC [aldicarb] | inactive: 0

Going on with the list.

Row | Compound | aldicarb interaction hit call
21 | CCOC(=O)C1CCN(CCOc2ccc(Cl)cc2C)CC1.Cl [wact-160] + CNC(=O)O/N=C/C(C)(C)SC [aldicarb] | inactive: 0
22 | CCCNC(=O)c1cccc(Oc2ccccc2)c1 [wact-581] + CNC(=O)O/N=C/C(C)(C)SC [aldicarb] | inactive: 0
23 | O=[N+]([O-])c1ccc(N2CCN(S(=O)(=O)c3ccc(F)cc3)CC2)cc1NC1CC1 [wact-73] + CNC(=O)O/N=C/C(C)(C)SC [aldicarb] | inactive: 0
24 | O=C(Nc1ccc(Br)cn1)c1cc2ccccc2o1 [wact-624] + CNC(=O)O/N=C/C(C)(C)SC [aldicarb] | inactive: 0
25 | CCCC(=O)NC(=S)Nc1ccc(Cl)c(Cl)c1 [wact-370] + CNC(=O)O/N=C/C(C)(C)SC [aldicarb] | inactive: 0
26 | COc1c(Cl)cnn(-c2cccc(C)c2)c1=O [wact-409] + CNC(=O)O/N=C/C(C)(C)SC [aldicarb] | inactive: 0
27 | c1ccc2nc(-c3nc4ccccc4o3)ccc2c1 [wact-40] + CNC(=O)O/N=C/C(C)(C)SC [aldicarb] | inactive: 0
28 | CC(NC(=O)c1nc(-c2ccc(Cl)cc2)no1)c1ccccc1 (stereo not given) [wact-586] + CNC(=O)O/N=C/C(C)(C)SC [aldicarb] | inactive: 0
29 | Fc1ccc(N2CCN(Cc3cccc(Br)c3)CC2)cc1 [wact-30] + CNC(=O)O/N=C/C(C)(C)SC [aldicarb] | inactive: 0
30 | COC(=O)CC[C@H](Nc1nncc(-c2ccc3ccccc3c2)n1)C(=O)OC [wact-282] + CNC(=O)O/N=C/C(C)(C)SC [aldicarb] | inactive: 0
31 | CCCCC(=O)Nc1cccc(NC(=S)NC(=O)c2ccc3c(c2)OCCO3)c1 [wact-504] + CNC(=O)O/N=C/C(C)(C)SC [aldicarb] | inactive: 0
32 | Cc1ccc(C2(c3noc(CN4CCC(c5ccncc5)CC4)n3)CCCC2)cc1 [wact-334] + CNC(=O)O/N=C/C(C)(C)SC [aldicarb] | inactive: 0
33 | Fc1ccc(NC2CCCN(Cc3ccc(OC(F)F)cc3)C2)cc1 (stereo not given) [wact-260] + CNC(=O)O/N=C/C(C)(C)SC [aldicarb] | inactive: 0
34 | CNC(=O)COc1ccc2cc(Br)ccc2c1 [wact-628] + CNC(=O)O/N=C/C(C)(C)SC [aldicarb] | inactive: 0
35 | C#CCn1/c(=N/C(=O)c2ccccc2S(C)(=O)=O)sc2cc(F)ccc21 [wact-353] + CNC(=O)O/N=C/C(C)(C)SC [aldicarb] | inactive: 0
36 | Cc1sc2ncnc(NCCc3ccccc3)c2c1C [wact-429] + CNC(=O)O/N=C/C(C)(C)SC [aldicarb] | inactive: 0
37 | CCOc1ccc(NC(=O)c2cnsn2)cc1 [wact-630] + CNC(=O)O/N=C/C(C)(C)SC [aldicarb] | inactive: 0
38 | O=C(Nc1ccc(I)cc1)c1ccco1 [wact-27] + CNC(=O)O/N=C/C(C)(C)SC [aldicarb] | inactive: 0
39 | O=C(/C=C/c1ccccc1)c1ccc2c(c1)OCCO2 [wact-413] + CNC(=O)O/N=C/C(C)(C)SC [aldicarb] | inactive: 0
40 | O=[N+]([O-])c1ccc(N2CCc3ccccc3C2)nc1 [wact-421] + CNC(=O)O/N=C/C(C)(C)SC [aldicarb] | inactive: 0
